Laboratory results published in PubChem BioAssay AID2685 (National Center for Advancing Translational Sciences (NCATS), 2010).
Some of the results follow. These are further read-outs of the screen, such as a control signal, another cell line or another target. No call is given for them. Compounds called inactive in the main read-out are mostly missing here. Potencies come from curve fits of mixed quality, noted in brackets.

Experiment: qHTS Assay for Lipid Storage Modulators in Drosophila S3 Cells;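 on cell number change: cells counted by Cell Tracker Red CMTPX staining in the red channel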
Settings: BODIPY lipid droplet fluorescence, 18-24 h; for cell number change: measured here: cell count max response, cells fed with added oleic acid
Procedure, shortened: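 Laser-scanning cytometry quantifies lipid droplet accumulation (500–530 nm total intensity; droplet/cell object ratio) in oleic acid-fed (400 uM added) Drosophila S3 cells treated with a concentration series. 20 uM Triacsin C defined 100% inhibition.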

[1] = measured here: lipid fluorescence (Fed channel) AC50, cells fed with added oleic acid
[2] = measured here: cell number channel AC50, cells fed with added oleic acid

Row | Compound | cell number change [%] | AC50 [1] | AC50 [2]
1 | Clc1ccc(-c2cc(CN3CCOCC3)no2)cc1 | 21.6 | 14.6 µM [rising, partial curve, poor fit] | –
2 | CN(C)CCn1c2c(c(SCC(=O)Nc3ccccc3C(F)(F)F)nc1=O)CCCC2 | -36 | 16.4 µM [falling, partial curve] | 9.2 µM [falling, partial curve]
3 | Cc1ccc(C(=O)c2ccc([N+](=O)[O-])cc2)cc1C | 12.5 | 3.26 µM [rising, partial curve] | –
4 | Cc1cc(N2CCN(c3nc(-c4ccc([N+](=O)[O-])cc4)cs3)CC2)c2ccccc2n1 | -46.2 | 20.6 µM [falling, single point] | 29.1 µM [falling, single point]
5 | O=C(NCc1ccc(Cl)cc1)C(=O)NCC1OCCN1S(=O)(=O)c1cc(F)ccc1F (stereo not drawn) | -16.8 | – | –
6 | O=C(c1cccc(S(=O)(=O)N2CCOCC2)c1)N1CCN(c2ccc(F)cc2)CC1 | 20.1 | 0.184 µM [falling, full curve, poor fit] | –
7 | O=C(CCNC(=O)c1ccc([N+](=O)[O-])cc1)Nc1ccc(S(=O)(=O)N2CCOCC2)cc1 | 43.5 | – | 18.4 µM [rising, single point]
8 | CCC(CO)NC(=O)c1cccc(S(=O)(=O)N2c3ccccc3CC2C)c1 (stereo not drawn) | 7.85 | 6.51 µM [falling, single point] | –
9 | N=C1/C(=C/c2cccn2-c2cccc([N+](=O)[O-])c2)C(=O)N=C2SC=CN12 | 14.8 | 1.16 µM [rising, partial curve, poor fit] | –
10 | CCCCCCCn1c(=O)c(C(=O)OC)c(N)c2ccccc21 | -70 | 2.59 µM [falling, full curve] | 3.26 µM [falling, full curve]
11 | Cc1scc(C(=O)NCc2ccco2)c1-c1ccccc1 | -32 | – | 32.6 µM [falling, single point]
12 | Cc1ccc(N(C(=O)c2ccco2)C(C(=O)NC2CCCC2)c2ccco2)c(C)c1 (stereo not drawn) | – | 6.51 µM [rising, partial curve, poor fit] | –
13 | COc1ccc(CNC(=O)N2CCN(S(=O)(=O)c3ccccc3)CC2)cc1 | 36.2 | – | 41.1 µM [rising, partial curve, poor fit]
14 | Cc1nnnn1/C(=C\c1ccccc1)C(=O)OCC(=O)N1CC2(C)CC1CC(C)(C)C2 (stereo not drawn) | – | 5.17 µM [falling, full curve] | –
15 | O=C(CCN1C(=O)c2ccccc2C1=O)Nc1ccc(S(=O)(=O)NC2=NCCCCC2)cc1 | 0.822 | – | –
16 | O=C(CNC(=O)c1cccc(Cl)c1)NCC(c1cccs1)N1CCOCC1 (stereo not drawn) | 11 | 0.058 µM [falling, full curve, poor fit] | –
17 | O=C(NC1CC1)c1cc(Cl)ccc1[N+](=O)[O-] | -36.4 | 23.1 µM [falling, partial curve] | 18.4 µM [falling, single point]
18 | CCn1c(SCC(=O)Nc2nc(-c3ccc(C)cc3)cs2)nnc1-c1ccccc1O | -35.6 | 2.59 µM [rising, single point] | –
19 | C/C(Cn1nnc([N+](=O)[O-])n1)=N\NC(=O)c1cccc(Cl)c1 | 9.61 | 0.0651 µM [rising, full curve, poor fit] | –

Row | Compound | cell number change [%] | AC50 [1] | AC50 [2]
20 | O=C(Nc1cc2c(cc1C(=O)O)OCCCO2)c1ccc(C(F)(F)F)cc1 | -14.1 | – | –
21 | CN1CCN(C2=Cc3ccccc3Sc3cc(F)c(F)cc32)CC1 | -63.1 | 23.1 µM [falling, single point] | 16.4 µM [falling, single point]
22 | O=c1c2[nH]cnc2n(-c2cccc(Br)c2)c(=O)n1Cc1ccccc1 | 23.7 | 2.06 µM [rising, partial curve] | –
23 | COC(=O)c1ccc(C2/C(=C(\O)c3ccc4c(c3)OCCO4)C(=O)C(=O)N2CCCN2CCOCC2)cc1 (stereo not drawn) | -3.54 | 6.51 µM [falling, single point] | –
24 | CCOC(=O)c1cnc(SCc2cccc(C)c2)nc1N | 66.2 | 29.1 µM [rising, single point] | –
25 | COC(=O)N/N=C/c1cc(Cl)cc(Cl)c1OCc1ccc(F)cc1 | – | 0.231 µM [rising, full curve, poor fit] | –
26 | O=S(=O)(c1ccccc1)N1CCCC1c1nc2ccccc2s1 (stereo not drawn) | 6.03 | 6.51 µM [rising, single point] | –
27 | O=C(N[C@@H](Cc1ccccc1)C(=O)O)c1cccnc1 | 0.338 | 0.00517 µM [falling, full curve] | –
28 | CCOc1ccc(NC(=O)c2cccc(-n3cnnn3)c2)cc1 | 25.8 | – | 0.0731 µM [rising, full curve, poor fit]
29 | CC1(C)OC(=O)C(=NNc2ccccc2[N+](=O)[O-])C(=O)O1 | 2.92 | 3.26 µM [rising, single point] | 4.61 µM [rising, single point]
30 | CC(=O)c1ccc(NC(=O)CN2CCC(C(=O)c3ccc4c(c3)OCCO4)CC2)cc1 | 4.78 | 2.91 µM [rising, single point] | –
31 | CC(NC(=O)C(C)N1c2cccc3cccc(c23)S1(=O)=O)c1ccccc1 (stereo not drawn) | 9.21 | – | –
32 | Cc1ccccc1N1CCN(C2CCCN(C(=O)c3ccc(Cl)s3)C2)CC1 (stereo not drawn) | -9.63 | – | –
33 | Cn1nccc1C(=O)NC1CCN(Cc2ccccc2)CC1 | 7.74 | 1.84 µM [rising, full curve, poor fit] | –
34 | CC(C)CC(c1nnnn1C1CCCCC1)N1CCN(C(=O)c2ccco2)CC1 (stereo not drawn) | 3.85 | – | –
35 | O=C(/C=C/c1ccnc2ccccc12)c1cccs1 | 7.64 | 13 µM [falling, partial curve] | 3.66 µM [falling, single point]
36 | O=C(COC(=O)CNC(=O)c1ccc(Cl)cc1Cl)NC1CCCCCCC1 | -6.93 | 3.66 µM [falling, single point] | –
37 | Cc1ccc(-c2n[nH]c(=S)c3ccccc23)cc1 | 7.81 | – | –
38 | Cc1cccc(OCC(O)Cn2c(NCc3cccnc3)nc3c2c(=O)[nH]c(=O)n3C)c1 (stereo not drawn) | 28.6 | 29.1 µM [rising, single point] | –

Two entries from above, as a markdown table:

| Row | Compound | cell number change [%] | AC50 [1] | AC50 [2] |
| --- | --- | --- | --- | --- |
| 31 | CC(NC(=O)C(C)N1c2cccc3cccc(c23)S1(=O)=O)c1ccccc1 (stereo not drawn) | 9.21 | – | – |
| 32 | Cc1ccccc1N1CCN(C2CCCN(C(=O)c3ccc(Cl)s3)C2)CC1 (stereo not drawn) | -9.63 | – | – |
